Some of the results follow.

Sequences of proteins named here, by UniProt entry; tags and fusion partners are left off.
UniProt Q0JBA9, entry or part of it: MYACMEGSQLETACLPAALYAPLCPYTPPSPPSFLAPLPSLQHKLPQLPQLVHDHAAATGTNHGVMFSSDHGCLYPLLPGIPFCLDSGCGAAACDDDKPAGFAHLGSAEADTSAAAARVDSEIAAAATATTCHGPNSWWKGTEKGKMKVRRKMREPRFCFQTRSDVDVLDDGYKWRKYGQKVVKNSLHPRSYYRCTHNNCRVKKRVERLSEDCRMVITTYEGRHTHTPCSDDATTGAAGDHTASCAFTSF

For this test, the target named is OsWRKY34 (Oryza sativa, UniProt Q0JBA9 1-250). Put plainly: protein-binding microarray (RPBM); PBS, 2% BSA, 51.3 ng/ul salmon testes DNA, 50 uM zinc acetate, 200 nM TF, 25 C, 1 h; high values mean tight binding. The conditions noted are these: protein: recombinant; tags: N-terminal polyhistidine and DsRed monomer fusion (pET32a); label: CyDye5-dUTP incorporated in the synthesized complementary strand; 3' TTTTT single-stranded linker to array surface; dsDNA, one strand shown. In a few lines:
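The binding signal is fluorescence intensity per array feature (arbitrary units). Readings came from an Axon 4000B scanner after a washed, 2% BSA-blocked, double-stranded custom Agilent array had been incubated for 1 h at 25 °C with 200 nM protein and 50 µM zinc acetate. The protein was a Ni–NTA-purified transcription factor fused N-terminally to polyhistidine and DsRed, expressed in E. coli BL21-CodonPlus.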
With “GTGCCAGTCACTCCGGTGGCCCATTTTTTCTTCCTTTTTCCGGAGTCACCTAGTGCAG”, the binding signal is 8620 fluorescence intensity (a.u.).
Take “GATGATCCTTTAGTTTGTTTCAGTTTGATTCGTTCTTTACCGGAGTCACCTAGTGCAG”: the binding signal was 16100 fluorescence intensity (a.u.).
Regarding “TTAGTATGTTAAGCTCTTTGTTTCTTGATAGCTGGAAGCCCGGAGTCACCTAGTGCAG”, the binding signal is 8370 fluorescence intensity (a.u.).
Next, “GTTGGGGAGAAGGGGTGGTAAAATTTCTGGTATTATGGTTCGGAGTCACCTAGTGCAG”: 11700 fluorescence intensity (a.u.).
Regarding “GTCCCAACCCTCTGTCTTCTTCTACCCGCGTACTACTCCACGGAGTCACCTAGTGCAG”, the binding signal is 10500 fluorescence intensity (a.u.).
The figure for “AATTTACCGTCTTCTTAATTGTTTTTAGGTAGGAGTACAACGGAGTCACCTAGTGCAG” is 9170 fluorescence intensity (a.u.).
The figure for “TTCCTATCCGAATCCTATATTTTTTTTTCTTATTTCTCTACGGAGTCACCTAGTGCAG” is 8750 fluorescence intensity (a.u.); for “ATGCTTGATCTTCTTGGTTGCCTAACCATCGATTTTTTTCCGGAGTCACCTAGTGCAG” it is 10300 fluorescence intensity (a.u.); for “GGTTCTTCTGAGCGGGGCCGGGGCGGGGCGGCAGCTGGGGCGGAGTCACCTAGTGCAG” it is 30000 fluorescence intensity (a.u.).
Regarding “CTCCCTTCATCTTTTCTTTCATGTACAATGCACAAAACTTCGGAGTCACCTAGTGCAG”, the binding signal was 8040 fluorescence intensity (a.u.).
Next, “CGGCGTGATTCTCCGTGTCTGCTGCTCTGCTCCACGTATTCGGAGTCACCTAGTGCAG”: 8170 fluorescence intensity (a.u.).
On to “CGCTTGGTTTGGGCGTTTTGATGTTACAAATTCCTCGTTTCGGAGTCACCTAGTGCAG”, for which the binding signal is 8850 fluorescence intensity (a.u.).
Next, “TTGAGTTTTTGTTTGCATTGTTTGACTACTCGTCTTATTTCGGAGTCACCTAGTGCAG”: 9450 fluorescence intensity (a.u.); “ATACGGTAGAGAAGATGGTCCTTTTTCTTGTCCTTTTTCTCGGAGTCACCTAGTGCAG”: 8700 fluorescence intensity (a.u.); “TGCGTACACTCCTTTGAAACCCCATTGCTATGTAGACAATCGGAGTCACCTAGTGCAG”: 8020 fluorescence intensity (a.u.).
As for “CATTTGCCTGATTAGTCCATTCCCCACGGTTTATATTTTCCGGAGTCACCTAGTGCAG”, the binding signal was 13500 fluorescence intensity (a.u.).
With “AGCTTCAACCTCTTGTAACTTTCCTTTGAGTATATCTCTCCGGAGTCACCTAGTGCAG”, the binding signal was 10200 fluorescence intensity (a.u.).
The figure for “TCTTTTTTTGTTGTTTGCTGGTTGTATGGTTTTTTGGTATCGGAGTCACCTAGTGCAG” is 9460 fluorescence intensity (a.u.); for “CTGGTGTGTTACTCTGCTCTTACTCGTTTTCTGCCTGATCCGGAGTCACCTAGTGCAG” it is 10400 fluorescence intensity (a.u.); for “CCCTGTACGTATGTGTTTCCGTGTTAATTTCTGTCTCTTTCGGAGTCACCTAGTGCAG” it is 9470 fluorescence intensity (a.u.).
With “ATATTGGCTCCATATTCTCCTCTCTTGCACCTCAGGTATACGGAGTCACCTAGTGCAG”, the binding signal is 10200 fluorescence intensity (a.u.).
Next, “CGCCATCACTGCCAAGCTCGCCGGCTACATCGCCCGCGCCCGGAGTCACCTAGTGCAG”: 8040 fluorescence intensity (a.u.); “AAATTATTTCCGATTTTTCCTTATTTTTTCCACCATTTCCCGGAGTCACCTAGTGCAG”: 9490 fluorescence intensity (a.u.); “TTCTTGTTCTTCATGGATGATACACCCTTGTTCTTGTTGCCGGAGTCACCTAGTGCAG”: 9610 fluorescence intensity (a.u.).
Turning to “CTTAGCCAGCGTTTCTAGTTTCTCTTTCTTTTCCTGTTCCCGGAGTCACCTAGTGCAG”, the binding signal was 8720 fluorescence intensity (a.u.).
As for “GATTGCTCCACACCATCTTCGCCTTCGAGATGACTCTCGTCGGAGTCACCTAGTGCAG”, the binding signal is 8540 fluorescence intensity (a.u.).
The figure for “TGATTGGTGAGCTCGTGTTGGTATTTTTGTTTGTTTGTAGCGGAGTCACCTAGTGCAG” is 8530 fluorescence intensity (a.u.).
Turning to “TACATAGAAACACTTCATGATTTTACCCTTTTACAGTTCTCGGAGTCACCTAGTGCAG”, the binding signal was 10200 fluorescence intensity (a.u.).
Turning to “CGACGGGGCCATGTGGTTTGGTTTTGTTTAGCATCCCGTCCGGAGTCACCTAGTGCAG”, the binding signal is 9350 fluorescence intensity (a.u.).
For “TGGATCATATCTCGTCGGCCTGATTAACAGCAACCATAGACGGAGTCACCTAGTGCAG”, the binding signal was 8250 fluorescence intensity (a.u.).
As for “GCGTTGTACCTGGTGTTGGTGTGAATAATATTGGGCGTTGCGGAGTCACCTAGTGCAG”, the binding signal was 8140 fluorescence intensity (a.u.).
“CAGTTCTTCAACACAACGTTGCAGCTCATTCTTCTCCCTTCGGAGTCACCTAGTGCAG”: the binding signal was 11200 fluorescence intensity (a.u.).
Regarding “AATCTTCTACATACACGCTTCATTCCATTTTTGATAGATTCGGAGTCACCTAGTGCAG”, the binding signal was 9060 fluorescence intensity (a.u.).
Consider “TCCCATGGCTCGCGTTCGGCCACGTGCTCCCTTACCTAGACGGAGTCACCTAGTGCAG”, for which the binding signal was 8900 fluorescence intensity (a.u.).
Take “TCCTAGCTAGCTAACAAGTGTTTATCTCACCATGCATAATCGGAGTCACCTAGTGCAG”: the binding signal is 8220 fluorescence intensity (a.u.).
Next, “GCGATCTGATCTATACAATGGTTGTTAATAGTGGGTTTTTCGGAGTCACCTAGTGCAG”: 9330 fluorescence intensity (a.u.); “GTATACTATTTTATTCTCCATTGTGTTTTTTTTTCTCTTTCGGAGTCACCTAGTGCAG”: 10700 fluorescence intensity (a.u.); “CTCGTCCTACTTAGTACTCCTGCCGTACGTATTTATTGTACGGAGTCACCTAGTGCAG”: 9420 fluorescence intensity (a.u.).
Next, “AAGCCCACATTGGCCCATTTTGATTCATCTCGGAGTTTTTCGGAGTCACCTAGTGCAG”: 10100 fluorescence intensity (a.u.); “GTGTTTCTATTTTACACACGCGGCACATTCCTATATTTTCCGGAGTCACCTAGTGCAG”: 8900 fluorescence intensity (a.u.).
As for “TTTGGATTTTGTTTCATTTTTTTTTACATGCATTGGATTACGGAGTCACCTAGTGCAG”, the binding signal was 9400 fluorescence intensity (a.u.).
The figure for “ACGAACGGTCAAACATGTGATAAAAAGTCAACGACGTCAACGGAGTCACCTAGTGCAG” is 8600 fluorescence intensity (a.u.).
For the sequence “CACGCCGTACTTGCTCCACGATAAGCTCGTGCTCTGCTCTCGGAGTCACCTAGTGCAG”, the binding signal is 8170 fluorescence intensity (a.u.).
As for “CCTCTACTCGATTACGATGTTCCTGGAGTAAATTTCTCCACGGAGTCACCTAGTGCAG”, the binding signal is 8210 fluorescence intensity (a.u.).
On to “AGGGATTATGTGTGTGTAAGATATTTGTGACTAGTTTATTCGGAGTCACCTAGTGCAG”, for which the binding signal is 11500 fluorescence intensity (a.u.).
Next, “TCTTCTTTTGTACCGTTCATTTTTTTCTTTCTTTTTAGACCGGAGTCACCTAGTGCAG”: 11800 fluorescence intensity (a.u.); “TAATTCATGTCGGTCCTTCTTGTTGCATGGAAATATCCACCGGAGTCACCTAGTGCAG”: 8360 fluorescence intensity (a.u.).
The figure for “ACTATTCCACCTATAAGGCCGCGCCGCCGCCGCCGACGAGCGGAGTCACCTAGTGCAG” is 8300 fluorescence intensity (a.u.); for “GAACATATGCAAACAACTGTTAGAAAGTTATGTATGACCACGGAGTCACCTAGTGCAG” it is 8080 fluorescence intensity (a.u.); for “AAGTTTATTTTGCTATTTTCTTCTCCGGCATGATCGCTCCCGGAGTCACCTAGTGCAG” it is 10900 fluorescence intensity (a.u.).
The figure for “GTCAATTCCATTTCATCCCCAAACTTCCTTCTGCTCTTGCCGGAGTCACCTAGTGCAG” is 8900 fluorescence intensity (a.u.); for “CAAATATTTTCTTTAGCTGTTCTATTATCAAGTATGTTCACGGAGTCACCTAGTGCAG” it is 9000 fluorescence intensity (a.u.).
Take “TCAACTTCACTCCACCTTTTTTCGCACGCACGCTTTCCAACGGAGTCACCTAGTGCAG”: the binding signal was 8900 fluorescence intensity (a.u.).
Take “GGCACTCAGCATTCTCGCATTTTATCACCACCGAAAACAACGGAGTCACCTAGTGCAG”: the binding signal is 8150 fluorescence intensity (a.u.).

The values are drawn from paper PMC7819943, “Rice protein-binding microarrays: a tool to detect cis-acting elements near promoter regions in rice”.
